The text below walks through data of doi:10.1101/740498.

Sequences of proteins named here, by UniProt entry; tags and fusion partners are left off.
UniProt P12270: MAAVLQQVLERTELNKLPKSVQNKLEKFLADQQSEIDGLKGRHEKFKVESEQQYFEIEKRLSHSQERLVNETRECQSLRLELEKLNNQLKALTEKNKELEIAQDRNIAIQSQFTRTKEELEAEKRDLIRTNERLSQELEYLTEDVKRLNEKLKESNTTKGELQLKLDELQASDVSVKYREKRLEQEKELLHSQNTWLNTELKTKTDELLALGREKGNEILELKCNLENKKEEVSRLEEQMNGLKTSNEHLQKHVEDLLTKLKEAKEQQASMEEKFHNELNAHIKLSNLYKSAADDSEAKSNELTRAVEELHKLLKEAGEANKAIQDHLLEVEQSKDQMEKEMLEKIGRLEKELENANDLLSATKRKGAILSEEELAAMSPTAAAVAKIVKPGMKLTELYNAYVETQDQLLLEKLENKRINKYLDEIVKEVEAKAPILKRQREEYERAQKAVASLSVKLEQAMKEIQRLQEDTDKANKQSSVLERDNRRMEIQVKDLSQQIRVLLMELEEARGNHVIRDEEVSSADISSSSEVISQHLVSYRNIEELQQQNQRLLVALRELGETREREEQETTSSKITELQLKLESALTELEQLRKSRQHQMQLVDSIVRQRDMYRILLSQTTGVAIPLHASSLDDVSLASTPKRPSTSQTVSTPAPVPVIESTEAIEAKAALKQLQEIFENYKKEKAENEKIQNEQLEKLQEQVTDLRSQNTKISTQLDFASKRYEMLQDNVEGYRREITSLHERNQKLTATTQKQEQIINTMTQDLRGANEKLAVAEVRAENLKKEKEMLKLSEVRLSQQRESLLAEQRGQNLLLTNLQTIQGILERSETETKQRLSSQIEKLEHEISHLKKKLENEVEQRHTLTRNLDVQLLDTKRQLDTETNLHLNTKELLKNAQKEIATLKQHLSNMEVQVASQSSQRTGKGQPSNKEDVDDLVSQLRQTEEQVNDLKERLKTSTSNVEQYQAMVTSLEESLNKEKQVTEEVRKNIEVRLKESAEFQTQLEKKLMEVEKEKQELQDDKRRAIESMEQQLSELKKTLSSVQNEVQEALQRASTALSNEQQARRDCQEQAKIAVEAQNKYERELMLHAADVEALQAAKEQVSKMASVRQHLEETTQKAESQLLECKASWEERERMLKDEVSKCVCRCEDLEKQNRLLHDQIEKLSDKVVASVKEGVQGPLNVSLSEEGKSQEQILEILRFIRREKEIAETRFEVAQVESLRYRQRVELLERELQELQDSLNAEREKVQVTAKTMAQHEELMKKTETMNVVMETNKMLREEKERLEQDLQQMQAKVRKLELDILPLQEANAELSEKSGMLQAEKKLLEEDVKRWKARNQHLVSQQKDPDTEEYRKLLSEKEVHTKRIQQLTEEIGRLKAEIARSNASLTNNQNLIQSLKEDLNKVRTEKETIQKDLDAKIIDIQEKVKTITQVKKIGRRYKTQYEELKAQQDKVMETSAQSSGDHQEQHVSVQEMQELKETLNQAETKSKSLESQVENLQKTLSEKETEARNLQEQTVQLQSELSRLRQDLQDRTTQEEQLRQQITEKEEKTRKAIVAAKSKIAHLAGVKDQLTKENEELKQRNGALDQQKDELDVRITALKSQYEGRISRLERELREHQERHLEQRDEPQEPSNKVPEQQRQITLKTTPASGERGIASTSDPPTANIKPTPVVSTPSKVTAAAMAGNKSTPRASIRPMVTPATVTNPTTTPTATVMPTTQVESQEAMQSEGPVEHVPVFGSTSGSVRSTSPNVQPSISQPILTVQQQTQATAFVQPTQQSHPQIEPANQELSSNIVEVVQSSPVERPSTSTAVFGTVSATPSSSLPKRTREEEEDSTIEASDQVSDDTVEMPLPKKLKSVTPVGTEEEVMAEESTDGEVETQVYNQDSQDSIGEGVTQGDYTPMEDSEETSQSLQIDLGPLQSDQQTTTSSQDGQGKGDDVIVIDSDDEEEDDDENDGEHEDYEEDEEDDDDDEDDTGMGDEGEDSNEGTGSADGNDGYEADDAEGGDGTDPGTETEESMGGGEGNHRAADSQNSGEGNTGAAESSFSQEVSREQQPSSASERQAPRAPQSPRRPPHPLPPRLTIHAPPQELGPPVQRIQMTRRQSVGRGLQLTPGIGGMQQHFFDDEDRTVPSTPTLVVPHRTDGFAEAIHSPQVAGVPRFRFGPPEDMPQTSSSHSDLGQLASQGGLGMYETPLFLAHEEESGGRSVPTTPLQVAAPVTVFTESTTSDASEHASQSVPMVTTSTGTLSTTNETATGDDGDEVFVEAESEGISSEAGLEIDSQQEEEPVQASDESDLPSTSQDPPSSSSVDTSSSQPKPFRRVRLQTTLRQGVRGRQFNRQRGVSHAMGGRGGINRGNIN
UniProt Q13838: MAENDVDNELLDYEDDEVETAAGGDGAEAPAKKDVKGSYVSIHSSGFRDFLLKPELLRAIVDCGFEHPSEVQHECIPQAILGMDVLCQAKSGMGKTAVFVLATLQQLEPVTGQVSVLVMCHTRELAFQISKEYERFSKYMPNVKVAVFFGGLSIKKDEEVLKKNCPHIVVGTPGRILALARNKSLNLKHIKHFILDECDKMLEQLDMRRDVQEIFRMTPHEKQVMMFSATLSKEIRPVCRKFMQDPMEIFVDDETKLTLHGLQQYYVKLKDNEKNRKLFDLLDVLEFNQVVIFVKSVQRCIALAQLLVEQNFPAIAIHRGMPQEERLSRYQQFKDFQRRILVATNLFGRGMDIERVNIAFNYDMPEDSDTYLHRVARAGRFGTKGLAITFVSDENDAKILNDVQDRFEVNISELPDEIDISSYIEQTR

Results are given in words; binding and its absence hold for the method and conditions named. Binding seen in cells or lysates may run through a third protein. Some results given as binding are weak or reduced against the parent protein; the word gives no strength.

The target in one assay is FLAG-tagged TPR (UniProt P12270). The experiment in a line: co-IP.
Another assay deals with FLAG-tagged TPR, P12270. The assay is described as follows: co-IP. To be noted: remark: other sources report otherwise.

Take “TREX component UAP56 (from UniProt Q13838 1-428)”: the binding result with FLAG-tagged TPR is “binds”.

B1: mRNA export receptor Nxf1, Q9UBU9 1-619 (protein)
chain: MADEGKSYSEHDDERVNFPQRKKKGRGPFRWKYGEGNRRSGRGGSGIRSSRLEEDDGDVAMSDAQDGPRVRYNPYTTRPNRRGDTWHDRDRIHVTVRRDRAPPERGGAGTSQDGTSKNWFKITIPYGRKYDKAWLLSMIQSKCSVPFTPIEFHYENTRAQFFVEDASTASALKAVNYKILDRENRRISIIINSSAPPHTILNELKPEQVEQLKLIMSKRYDGSQQALDLKGLRSDPDLVAQNIDVVLNRRSCMAATLRIIEENIPELLSLNLSNNRLYRLDDMSSIVQKAPNLKILNLSGNELKSERELDKIKGLKLEELWLDGNSLCDTFRDQSTYISAIRERFPKLLRLDGHELPPPIAFDVEAPTTLPPCKGSYFGTENLKSLVLHFLQQYYAIYDSGDRQGLLDAYHDGACCSLSIPFIPQNPARSSLAEYFKDSRNVKKLKDPTLRFRLLKHTRLNVVAFLNELPKTQHDVNSFVVDISAQTSTLLCFSVNGVFKEVDGKSRDSLRAFTRTFIAVPASNSGLCIVNDELFVRNASSEEIQRAFAMPAPTPSSSPVPTLSPEQQEMLQAFSTQSGMNLEWSQKCLQDNNWDYTRSAQAFTHLKAKGEIPEVAFMK
B1: the binding result with FLAG-tagged TPR, P12270 is recorded as “binds”.
